Source: the supplement of paper PMC10849652
The other results are listed elsewhere or left out.

Chains of the proteins cited; added tags and fusions are not shown. Lines headed by an entry give the natural chain unless they say otherwise; changes in a name come on top.
UniProt Q8IUF8: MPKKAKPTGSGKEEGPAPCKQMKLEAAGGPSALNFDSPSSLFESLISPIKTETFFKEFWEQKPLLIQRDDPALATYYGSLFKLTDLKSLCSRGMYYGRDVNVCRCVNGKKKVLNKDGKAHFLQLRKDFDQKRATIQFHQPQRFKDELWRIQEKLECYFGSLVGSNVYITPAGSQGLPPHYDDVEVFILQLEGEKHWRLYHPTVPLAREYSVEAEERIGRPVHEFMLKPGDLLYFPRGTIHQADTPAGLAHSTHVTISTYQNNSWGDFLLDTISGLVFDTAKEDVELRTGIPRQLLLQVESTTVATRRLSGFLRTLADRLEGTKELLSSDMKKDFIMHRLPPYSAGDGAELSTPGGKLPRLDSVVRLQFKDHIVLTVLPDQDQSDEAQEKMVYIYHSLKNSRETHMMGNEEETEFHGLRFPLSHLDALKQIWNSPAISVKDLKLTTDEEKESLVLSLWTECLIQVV
UniProt Q8IYW5, whole entry, looked up: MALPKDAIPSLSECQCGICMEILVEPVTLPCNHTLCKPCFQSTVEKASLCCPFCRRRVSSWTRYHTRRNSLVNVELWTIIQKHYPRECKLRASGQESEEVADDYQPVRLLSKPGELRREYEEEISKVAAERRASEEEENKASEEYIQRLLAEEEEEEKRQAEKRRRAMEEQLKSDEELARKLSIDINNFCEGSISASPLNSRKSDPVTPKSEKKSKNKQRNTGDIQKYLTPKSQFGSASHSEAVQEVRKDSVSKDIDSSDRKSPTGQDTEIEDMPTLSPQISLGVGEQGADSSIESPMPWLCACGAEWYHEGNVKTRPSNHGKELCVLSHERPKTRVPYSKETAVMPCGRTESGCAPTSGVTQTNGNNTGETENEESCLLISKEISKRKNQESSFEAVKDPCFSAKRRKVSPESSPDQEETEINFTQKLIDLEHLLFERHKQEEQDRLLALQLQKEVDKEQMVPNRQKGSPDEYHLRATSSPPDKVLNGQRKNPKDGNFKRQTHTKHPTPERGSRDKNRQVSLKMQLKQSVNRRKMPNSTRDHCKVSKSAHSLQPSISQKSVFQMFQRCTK
UniProt Q8TDP1: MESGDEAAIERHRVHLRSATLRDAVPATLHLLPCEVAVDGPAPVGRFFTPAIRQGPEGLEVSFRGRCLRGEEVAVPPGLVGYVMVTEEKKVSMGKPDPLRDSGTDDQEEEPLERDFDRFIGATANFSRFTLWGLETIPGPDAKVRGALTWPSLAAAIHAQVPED
UniProt O00287: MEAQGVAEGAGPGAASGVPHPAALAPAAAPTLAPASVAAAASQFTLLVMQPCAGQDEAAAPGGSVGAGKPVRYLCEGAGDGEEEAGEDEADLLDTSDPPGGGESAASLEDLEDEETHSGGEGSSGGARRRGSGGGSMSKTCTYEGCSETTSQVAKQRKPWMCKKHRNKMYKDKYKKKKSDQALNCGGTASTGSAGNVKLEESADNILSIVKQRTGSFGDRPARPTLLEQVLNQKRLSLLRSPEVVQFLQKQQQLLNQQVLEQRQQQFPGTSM
UniProt O43566: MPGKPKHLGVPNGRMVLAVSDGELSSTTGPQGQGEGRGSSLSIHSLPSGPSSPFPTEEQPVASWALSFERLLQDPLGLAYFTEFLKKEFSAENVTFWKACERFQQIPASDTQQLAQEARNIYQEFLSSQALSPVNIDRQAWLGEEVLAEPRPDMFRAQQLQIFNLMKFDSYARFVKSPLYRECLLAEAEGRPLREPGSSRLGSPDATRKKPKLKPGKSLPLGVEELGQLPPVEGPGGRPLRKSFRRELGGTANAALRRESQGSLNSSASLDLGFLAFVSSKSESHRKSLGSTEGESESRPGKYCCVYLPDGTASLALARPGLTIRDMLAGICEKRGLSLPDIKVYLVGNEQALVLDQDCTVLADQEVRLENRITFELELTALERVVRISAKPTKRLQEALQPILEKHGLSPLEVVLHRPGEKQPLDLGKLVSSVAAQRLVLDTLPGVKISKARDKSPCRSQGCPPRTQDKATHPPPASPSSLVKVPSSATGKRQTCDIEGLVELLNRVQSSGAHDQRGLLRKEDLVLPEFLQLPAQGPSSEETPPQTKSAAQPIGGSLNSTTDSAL
UniProt Q8WU17: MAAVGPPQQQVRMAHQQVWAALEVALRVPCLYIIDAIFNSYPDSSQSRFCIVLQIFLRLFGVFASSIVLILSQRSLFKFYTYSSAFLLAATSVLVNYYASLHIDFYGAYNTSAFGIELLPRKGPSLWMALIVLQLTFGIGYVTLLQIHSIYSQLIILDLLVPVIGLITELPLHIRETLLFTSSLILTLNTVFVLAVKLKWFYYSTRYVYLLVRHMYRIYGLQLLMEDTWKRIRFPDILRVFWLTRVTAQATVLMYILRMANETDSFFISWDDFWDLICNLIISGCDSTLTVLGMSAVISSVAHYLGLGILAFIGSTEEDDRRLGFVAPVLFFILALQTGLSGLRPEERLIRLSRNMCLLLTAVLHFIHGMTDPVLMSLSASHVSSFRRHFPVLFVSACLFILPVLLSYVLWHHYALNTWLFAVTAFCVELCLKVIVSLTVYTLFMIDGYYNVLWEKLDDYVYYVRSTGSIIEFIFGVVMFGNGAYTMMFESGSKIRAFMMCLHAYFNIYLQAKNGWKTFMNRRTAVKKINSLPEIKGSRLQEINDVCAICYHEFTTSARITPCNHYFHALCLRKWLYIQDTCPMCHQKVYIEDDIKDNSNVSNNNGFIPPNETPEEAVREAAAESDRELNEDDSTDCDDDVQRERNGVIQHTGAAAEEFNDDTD
UniProt Q5RL73: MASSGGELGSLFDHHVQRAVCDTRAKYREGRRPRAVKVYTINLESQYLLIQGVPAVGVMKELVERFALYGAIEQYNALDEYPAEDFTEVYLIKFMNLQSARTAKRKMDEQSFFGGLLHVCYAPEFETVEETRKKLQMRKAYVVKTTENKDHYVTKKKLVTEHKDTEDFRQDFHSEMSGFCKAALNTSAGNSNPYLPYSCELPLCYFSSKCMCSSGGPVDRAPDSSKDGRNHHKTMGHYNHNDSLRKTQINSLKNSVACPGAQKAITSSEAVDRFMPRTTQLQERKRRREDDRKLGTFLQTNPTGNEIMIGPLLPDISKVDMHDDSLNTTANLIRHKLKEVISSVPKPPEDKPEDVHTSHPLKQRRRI
UniProt Q8WVD3: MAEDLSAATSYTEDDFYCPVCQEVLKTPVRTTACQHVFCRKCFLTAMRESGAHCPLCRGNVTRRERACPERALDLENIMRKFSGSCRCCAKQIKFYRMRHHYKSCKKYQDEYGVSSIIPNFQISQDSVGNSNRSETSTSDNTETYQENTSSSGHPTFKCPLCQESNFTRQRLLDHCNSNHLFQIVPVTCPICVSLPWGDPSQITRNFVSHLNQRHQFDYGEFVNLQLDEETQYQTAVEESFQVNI
UniProt Q6NUQ1: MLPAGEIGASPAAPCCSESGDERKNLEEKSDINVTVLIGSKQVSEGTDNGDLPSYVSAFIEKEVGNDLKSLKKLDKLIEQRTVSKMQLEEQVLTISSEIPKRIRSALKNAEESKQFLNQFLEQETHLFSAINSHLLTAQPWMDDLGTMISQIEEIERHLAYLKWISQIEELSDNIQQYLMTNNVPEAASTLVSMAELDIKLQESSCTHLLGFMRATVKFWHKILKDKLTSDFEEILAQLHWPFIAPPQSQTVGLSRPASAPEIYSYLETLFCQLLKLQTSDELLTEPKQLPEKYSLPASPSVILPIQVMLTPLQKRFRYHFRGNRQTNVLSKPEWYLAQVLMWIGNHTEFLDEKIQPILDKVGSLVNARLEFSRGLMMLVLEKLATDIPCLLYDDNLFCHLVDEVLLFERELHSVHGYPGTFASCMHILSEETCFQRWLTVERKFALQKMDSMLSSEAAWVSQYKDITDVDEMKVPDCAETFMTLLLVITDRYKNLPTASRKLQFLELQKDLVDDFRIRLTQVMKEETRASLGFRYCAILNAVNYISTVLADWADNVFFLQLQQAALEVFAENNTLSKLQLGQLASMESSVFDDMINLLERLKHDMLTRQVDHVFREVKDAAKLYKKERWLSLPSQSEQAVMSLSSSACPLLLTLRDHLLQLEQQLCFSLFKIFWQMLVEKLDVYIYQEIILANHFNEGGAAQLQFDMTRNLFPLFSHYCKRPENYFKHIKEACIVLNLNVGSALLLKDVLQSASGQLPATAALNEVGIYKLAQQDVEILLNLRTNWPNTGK
UniProt O14730: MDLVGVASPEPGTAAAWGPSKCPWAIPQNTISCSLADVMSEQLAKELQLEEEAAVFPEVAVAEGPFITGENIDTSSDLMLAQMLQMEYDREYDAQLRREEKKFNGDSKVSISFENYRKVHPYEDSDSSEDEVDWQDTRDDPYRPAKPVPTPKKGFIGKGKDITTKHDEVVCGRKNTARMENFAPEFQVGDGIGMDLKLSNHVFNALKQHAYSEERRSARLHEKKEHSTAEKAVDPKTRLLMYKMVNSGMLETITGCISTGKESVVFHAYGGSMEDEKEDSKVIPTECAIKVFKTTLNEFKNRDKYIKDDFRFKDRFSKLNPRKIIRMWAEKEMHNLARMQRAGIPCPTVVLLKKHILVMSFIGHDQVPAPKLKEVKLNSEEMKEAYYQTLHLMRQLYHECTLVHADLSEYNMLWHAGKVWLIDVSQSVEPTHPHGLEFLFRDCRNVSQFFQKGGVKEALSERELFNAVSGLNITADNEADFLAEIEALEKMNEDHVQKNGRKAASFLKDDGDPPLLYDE
UniProt Q9H4X1: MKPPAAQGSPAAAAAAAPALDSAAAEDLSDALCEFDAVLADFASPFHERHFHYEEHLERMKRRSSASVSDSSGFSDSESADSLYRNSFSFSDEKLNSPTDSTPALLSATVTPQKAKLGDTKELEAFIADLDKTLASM
UniProt Q8NC44: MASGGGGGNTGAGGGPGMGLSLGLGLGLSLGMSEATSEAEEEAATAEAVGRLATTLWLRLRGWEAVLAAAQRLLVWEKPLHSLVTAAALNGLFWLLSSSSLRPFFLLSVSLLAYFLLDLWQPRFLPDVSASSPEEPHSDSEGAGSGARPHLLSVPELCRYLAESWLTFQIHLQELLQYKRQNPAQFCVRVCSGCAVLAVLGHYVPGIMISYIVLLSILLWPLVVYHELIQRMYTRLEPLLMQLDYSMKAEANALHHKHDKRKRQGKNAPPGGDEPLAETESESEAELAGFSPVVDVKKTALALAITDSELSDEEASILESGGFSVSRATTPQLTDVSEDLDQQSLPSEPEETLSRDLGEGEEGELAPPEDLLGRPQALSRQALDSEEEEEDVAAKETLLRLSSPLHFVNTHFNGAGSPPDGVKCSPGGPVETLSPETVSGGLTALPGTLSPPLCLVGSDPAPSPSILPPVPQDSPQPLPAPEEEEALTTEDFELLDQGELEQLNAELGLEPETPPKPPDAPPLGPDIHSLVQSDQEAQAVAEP
UniProt Q92546: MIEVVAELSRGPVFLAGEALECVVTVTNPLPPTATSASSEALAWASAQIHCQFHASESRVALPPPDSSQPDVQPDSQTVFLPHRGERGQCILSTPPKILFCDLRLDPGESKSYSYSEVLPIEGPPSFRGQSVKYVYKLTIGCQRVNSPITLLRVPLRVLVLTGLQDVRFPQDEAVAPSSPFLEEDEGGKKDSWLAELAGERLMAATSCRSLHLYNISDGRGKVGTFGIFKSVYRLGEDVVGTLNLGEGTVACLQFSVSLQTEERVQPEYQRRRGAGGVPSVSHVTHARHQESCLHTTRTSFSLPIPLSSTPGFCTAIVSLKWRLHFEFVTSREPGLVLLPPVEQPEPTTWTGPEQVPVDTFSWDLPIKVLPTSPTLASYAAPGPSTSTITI
UniProt Q04864: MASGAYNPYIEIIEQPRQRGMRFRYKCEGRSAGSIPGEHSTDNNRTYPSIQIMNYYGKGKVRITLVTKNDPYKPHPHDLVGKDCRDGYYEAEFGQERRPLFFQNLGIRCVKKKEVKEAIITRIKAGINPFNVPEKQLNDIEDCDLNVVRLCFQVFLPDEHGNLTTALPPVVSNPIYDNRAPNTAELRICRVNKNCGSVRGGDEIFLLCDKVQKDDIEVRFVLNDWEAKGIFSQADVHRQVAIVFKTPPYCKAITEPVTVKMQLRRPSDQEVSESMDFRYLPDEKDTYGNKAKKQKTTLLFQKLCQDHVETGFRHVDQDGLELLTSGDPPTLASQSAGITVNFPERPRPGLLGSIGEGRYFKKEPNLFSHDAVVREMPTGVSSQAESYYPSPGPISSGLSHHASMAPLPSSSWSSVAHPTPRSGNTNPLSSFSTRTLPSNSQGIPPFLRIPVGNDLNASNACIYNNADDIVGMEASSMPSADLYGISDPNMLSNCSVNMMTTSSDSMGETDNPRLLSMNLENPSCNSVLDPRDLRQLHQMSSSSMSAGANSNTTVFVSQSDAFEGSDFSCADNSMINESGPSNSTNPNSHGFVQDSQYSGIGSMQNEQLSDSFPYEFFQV

Legend:
Test in all cases: log2 fold change, soluble protein after heating vs DMSO (PISA); higher = thermal stabilisation; K562 cells, 10 uM, 30 min; active = over 0.2 and 3.5 SD of the protein, either way, in both replicates (recomputed)
[1] = compound: Cc1ccc(NC(=O)c2ccc(CN3CC[C@H](N(C)C)C3)c(C(F)(F)F)c2)cc1Nc1nccc(-c2cncnc2)n1 [bafetinib]
Method in brief: (§1)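 K562 cells at 2×10^6 cells/mL were exposed to 10 μM compound for 30 min, then aliquots were heated for 3 min across 48°C-58°C, pooled, and extracted in PBS containing 0.5% NP-40 at 4°C. The supernatant after 21,000xg for 90 min was taken as soluble protein and measured by TMTpro 16plex LC-MS/MS with channel sums equalised. Thermal stability is reported relative to control samples, with values from duplicates. Fold changes are given on a log2 scale.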

[2] = compound: Cc1cccc(CC(=O)N2CCc3c2ccc(-c2cn(C)c4ncnc(N)c24)c3F)n1
Method in brief: as §1

[3] = compound: Cc1cn(-c2cc(NC(=O)c3ccc(C)c(Nc4nccc(-c5cccnc5)n4)c3)cc(C(F)(F)F)c2)cn1 [nilotinib]
Method in brief: as §1

[4] = compound: Cc1nc(Nc2n[nH]c3c2CN(C(=O)N[C@H](CN(C)C)c2ccccc2)C3(C)C)c2sccc2n1
Method in brief: as §1

[5] = compound: Cc1nc(Nc2ncc(C(=O)Nc3c(C)cccc3Cl)s2)cc(N2CCN(CCO)CC2)n1 [dasatinib]
Method in brief: as §1

[6] = compound: Cc1ncc(-c2ccnc(Nc3ccc(S(C)(=O)=O)cc3)n2)n1C(C)C
Method in brief: as §1

[7] = compound: Cn1cc(-c2ccc3c(c2)CCN3C(=O)Cc2cccc(C(F)(F)F)c2)c2c(N)ncnc21
Method in brief: as §1

[8] = compound: Cn1cc(-c2ccc3nnc(C(F)(F)c4ccc5ncccc5c4)n3n2)cn1
Method in brief: as §1

[9] = compound: Cn1cncc1[C@@](N)(c1ccc(Cl)cc1)c1ccc2c(c1)c(-c1cccc(Cl)c1)cc(=O)n2C [tipifarnib]
Method in brief: as §1

[10] = compound: FC(F)(F)c1ccc(/C=C/c2nc(COc3ccc(CCCCn4ccnn4)cc3)co2)cc1 [mubritinib]
Method in brief: as §1

[11] = compound: NC(=O)Nc1cc(-c2cccc(F)c2)sc1C(=O)N[C@H]1CCCNC1
Method in brief: as §1

[12] = compound: NC(=O)c1cnc(N[C@@H]2CCCC[C@@H]2N)nc1Nc1cccc(-n2nccn2)c1
Method in brief: as §1

[13] = compound: NC1(c2ccc(-c3nc4ccn5c(=O)[nH]nc5c4cc3-c3ccccc3)cc2)CCC1
Method in brief: as §1

[14] = compound: NCC(=O)Nc1ccc(-n2nc(C(F)(F)F)cc2-c2ccc3c(ccc4ccccc43)c2)cc1
Method in brief: as §1

[15] = compound: Nc1ccccc1NC(=O)c1ccc(CNC(=O)OCc2cccnc2)cc1 [entinostat]
Method in brief: as §1

[16] = compound: O=C(CCCCCCC(=O)Nc1ccccc1)NO [vorinostat]
Method in brief: as §1

[17] = compound: O=C(O)c1ccc2c(c1)nc(Nc1cccc(Cl)c1)c1ccncc12 [silmitasertib]
Method in brief: as §1

[18] = compound: O=C1NC(=O)C(c2cnc3ccccn23)=C1c1cn2c3c(cc(F)cc13)CN(C(=O)N1CCCCC1)CC2
Method in brief: as §1

[19] = compound: O=C(CCCCCCNC(=O)c1cnc(N(c2ccccc2)c2ccccc2Cl)nc1)NO [citarinostat]
Method in brief: as §1

[20] = compound: c1cc(OCCN2CCCCC2)cc(-c2n[nH]c3ccc(-c4nnc[nH]4)cc23)c1
Method in brief: as §1

Row | Target | log2 fold change [1] | log2 fold change [2] | log2 fold change [3] | log2 fold change [4] | log2 fold change [5] | log2 fold change [6] | log2 fold change [7] | log2 fold change [8] | log2 fold change [9] | log2 fold change [10] | log2 fold change [11] | log2 fold change [12] | log2 fold change [13] | log2 fold change [14] | log2 fold change [15] | log2 fold change [16] | log2 fold change [17] | log2 fold change [18] | log2 fold change [19] | log2 fold change [20]
1 | RIOX2 (UniProt Q8IUF8) | inactive: 0.105 | inactive: -0.054 | inactive: -0.002 | inactive: 0.119 | inactive: -0.005 | inactive: -0.015 | inactive: -0.066 | inactive: 0.001 | inactive: 0.018 | inactive: 0.028 | inactive: -0.089 | inactive: -0.089 | inactive: -0.032 | inactive: 0.061 | inactive: 0.081 | inactive: 0.019 | inactive: 0.049 | inactive: 0.164 |  | 
2 | RNF168 (UniProt Q8IYW5) | inactive: -0.022 |  | inactive: -0.035 | inactive: 0.082 | inactive: -0.042 | inactive: 0.022 |  | inactive: 0.005 | inactive: 0.02 | inactive: 0.027 | inactive: -0.02 | inactive: 0.023 | inactive: -0.065 |  | inactive: 0.001 |  | inactive: 0.049 |  |  | 
3 | RELCH isoform 2 (UniProt Q9P260) | inactive: -0.092 | inactive: -0.176 | inactive: -0.087 | inactive: -0.084 | inactive: -0.209 | inactive: -0.147 | inactive: 0.05 | inactive: 0.222 |  | inactive: -0.006 | inactive: -0.005 | inactive: 0.026 | inactive: -0.099 | inactive: 0.006 | inactive: -0.073 | inactive: -0.151 | inactive: 0.088 | inactive: -0.198 | inactive: 0.01 | inactive: -0.005
4 | RNASEH2C (UniProt Q8TDP1) | inactive: 0.039 | inactive: 0.044 | inactive: -0.055 | inactive: -0.02 | inactive: -0.16 | inactive: -0.059 | inactive: 0.103 | inactive: 0.024 | inactive: -0.12 | inactive: 0.092 | inactive: 0.07 | inactive: -0.064 | inactive: -0.169 | inactive: -0.011 | inactive: 0.013 | inactive: 0.11 | inactive: -0.002 | inactive: -0.092 | inactive: 0.115 | inactive: -0.039
5 | RFXAP (UniProt O00287) | inactive: 0.017 |  | inactive: 0.012 | inactive: -0.015 | inactive: 0.016 | inactive: -0.047 | inactive: -0.077 | inactive: -0.093 | inactive: 0.162 | inactive: 0.033 | inactive: -0.044 | inactive: 0.005 | inactive: -0.004 | inactive: -0.029 | inactive: 0.054 |  | inactive: 0 | inactive: -0.012 | inactive: 0.069 | inactive: -0.02
6 | RGS14 (UniProt O43566) | inactive: -0.331 | inactive: 0.058 | inactive: -0.233 | inactive: 0.194 |  | inactive: -0.053 | inactive: -0.02 | inactive: -0.03 |  | inactive: 0.025 |  | inactive: -0.184 | inactive: 0.03 | inactive: -0.307 |  | inactive: -0.139 | inactive: -0.052 | inactive: -0.369 | inactive: -0.3 | inactive: -0.094
7 | RNF139 (UniProt Q8WU17) | inactive: -0.042 | inactive: 0.123 | inactive: -0.032 | inactive: 0.027 |  | inactive: 0.016 |  | inactive: -0.181 |  | inactive: -0.005 | inactive: 0.097 |  | inactive: -0.078 | inactive: -0.025 | inactive: -0.023 | inactive: 0.012 | inactive: 0.098 | inactive: -0.017 | inactive: -0.006 | inactive: -0.041
8 | REEP5 (UniProt Q00765) | inactive: -0.061 | inactive: -0.043 | inactive: -0.004 | inactive: 0.007 | inactive: 0.06 | inactive: -0.049 | inactive: 0.02 | inactive: 0 | inactive: 0.107 | inactive: 0.026 | inactive: 0.001 | inactive: 0 | inactive: 0.026 | inactive: -0.037 | inactive: -0.011 | inactive: -0.016 | inactive: 0.049 | inactive: -0.091 | inactive: -0.054 | inactive: -0.025
9 | RBM48 isoform 2 (UniProt Q5RL73) | inactive: 0.118 | inactive: -0.012 | inactive: 0.13 | inactive: -0.006 |  | inactive: -0.034 | inactive: 0.047 | inactive: -0.457 | inactive: 0.127 |  | inactive: -0.334 | inactive: -0.008 |  |  | inactive: 0.262 | inactive: 0.005 |  | inactive: 0.029 |  | 
10 | RHEB (UniProt Q15382) | inactive: 0.01 | inactive: 0.004 | inactive: -0.027 | inactive: 0.001 | inactive: 0.004 | inactive: 0.04 | inactive: 0.035 | inactive: 0.001 | inactive: -0.042 | inactive: 0.004 | inactive: -0.042 | inactive: -0.014 | inactive: -0.058 | inactive: -0.029 | inactive: -0.012 | inactive: 0.002 | inactive: -0.033 | inactive: -0.038 | inactive: 0.022 | inactive: -0.025
11 | RNF138 (UniProt Q8WVD3) | inactive: -0.012 | inactive: -0.038 | inactive: -0.015 | inactive: -0.354 | inactive: -0.192 | inactive: -0.327 | inactive: 0.094 |  | inactive: -0.092 | inactive: 0.031 | inactive: -0.012 | inactive: -0.331 | inactive: -0.049 | inactive: 0.018 | inactive: 0.061 | inactive: -0.05 | inactive: -0.06 | inactive: -0.006 | inactive: 0.02 | inactive: -0.034
12 | RINT1 (UniProt Q6NUQ1) | inactive: 0.169 | inactive: 0.014 | inactive: 0.001 | inactive: -0.042 | inactive: 0.028 | inactive: -0.01 | inactive: -0.051 | inactive: -0.057 | inactive: -0.075 | inactive: 0.039 |  | inactive: -0.074 | inactive: -0.482 | inactive: -0.038 |  | inactive: -0.076 | inactive: 0.293 | inactive: 0.203 | inactive: -0.095 | inactive: -0.148
13 | RIOK3 (UniProt O14730) | inactive: -0.004 | inactive: -0.02 | inactive: -0.017 | inactive: 0.06 | inactive: 0.053 | inactive: -0.01 | inactive: 0.018 | inactive: -0.005 | inactive: 0.002 | inactive: 0.017 | inactive: 0.047 | inactive: -0.005 | inactive: -0.061 | inactive: 0.015 | inactive: -0.005 | inactive: 0.043 | inactive: -0.011 | inactive: 0.057 | inactive: 0.036 | inactive: -0.046
14 | RGCC (UniProt Q9H4X1) | inactive: 0.102 | inactive: -0.266 | inactive: 0.391 | inactive: -0.076 |  | inactive: 0 |  |  |  |  |  | inactive: 0.045 |  |  |  | inactive: -0.146 |  |  |  | 
15 | RETREG2 (UniProt Q8NC44) | inactive: -0.113 |  | inactive: -0.042 | inactive: 0.026 | inactive: -0.092 | inactive: -0.004 | inactive: 0.006 | inactive: 0.078 | inactive: 0.012 | inactive: -0.081 | inactive: 0.084 | inactive: -0.045 | inactive: 0 | inactive: 0.142 | inactive: 0.026 |  | inactive: -0.015 |  | inactive: -0.056 | inactive: 0.299
16 | RNF141 (UniProt Q8WVD5) | inactive: -0.09 | inactive: -0.328 | inactive: -0.064 | inactive: -0.009 |  | inactive: -0.281 |  | inactive: -0.06 | inactive: 0.003 |  | inactive: -0.152 |  |  | inactive: -0.035 | inactive: -0.026 | inactive: -0.084 |  |  |  | 
17 | RGP1 (UniProt Q92546) | inactive: -0.134 |  | inactive: -0.312 | inactive: -0.002 |  | inactive: -0.104 | inactive: -0.036 | inactive: -0.245 |  | inactive: 0.06 | inactive: 0.102 | inactive: -0.028 | inactive: -0.212 | inactive: -0.055 | inactive: 0.112 |  | inactive: -0.075 | inactive: -0.021 |  | 
18 | RBP5 (UniProt P82980) | inactive: 0.002 | inactive: 0.197 | inactive: 0.108 | inactive: -0.02 | inactive: 0.15 | inactive: -0.001 | inactive: 0.146 |  | inactive: 0.075 | inactive: 0.046 | inactive: 0.182 | inactive: 0.047 | inactive: -0.022 |  | inactive: 0 | inactive: 0.143 | inactive: -0.002 | inactive: 0.083 | inactive: 0.121 | inactive: 0
19 | REL (UniProt Q04864) | inactive: -0.185 | inactive: 0.03 | inactive: -0.094 | active: -0.438 | inactive: -0.115 | inactive: -0.018 | inactive: 0.013 | inactive: 0.059 | inactive: -0.011 | inactive: 0.034 | inactive: -0.053 | inactive: -0.131 | inactive: -0.108 | inactive: 0.028 | inactive: -0.007 | inactive: -0.122 | inactive: 0.053 | inactive: -0.054 | inactive: 0.053 | inactive: -0.09

Single records, as listed above. Order of values: log2 fold change [1]	log2 fold change [2]	log2 fold change [3]	log2 fold change [4]	log2 fold change [5]	log2 fold change [6]	log2 fold change [7]	log2 fold change [8]	log2 fold change [9]	log2 fold change [10]	log2 fold change [11]	log2 fold change [12]	log2 fold change [13]	log2 fold change [14]	log2 fold change [15]	log2 fold change [16]	log2 fold change [17]	log2 fold change [18]	log2 fold change [19]	log2 fold change [20]
REEP5 (UniProt Q00765) is listed as inactive: -0.061	inactive: -0.043	inactive: -0.004	inactive: 0.007	inactive: 0.06	inactive: -0.049	inactive: 0.02	inactive: 0	inactive: 0.107	inactive: 0.026	inactive: 0.001	inactive: 0	inactive: 0.026	inactive: -0.037	inactive: -0.011	inactive: -0.016	inactive: 0.049	inactive: -0.091	inactive: -0.054	inactive: -0.025
REL (UniProt Q04864) is listed as inactive: -0.185	inactive: 0.03	inactive: -0.094	active: -0.438	inactive: -0.115	inactive: -0.018	inactive: 0.013	inactive: 0.059	inactive: -0.011	inactive: 0.034	inactive: -0.053	inactive: -0.131	inactive: -0.108	inactive: 0.028	inactive: -0.007	inactive: -0.122	inactive: 0.053	inactive: -0.054	inactive: 0.053	inactive: -0.09
